Some entries share one result that the patent states for a list of compounds.
Test system: B. subtilis 011085
Assay: B. subtilis capillary accumulation assay
Format: cell-based, Bacillus subtilis
Text: FIG. 4: Results of B. subtilis capillary accumulation assays using ROMP-derived glucose ligands (compound 5-7, Scheme 1). Buffer alone, glucose, or glucose-bearing compounds 5-7 were used as attractants in the capillary accumulation assay. Results are shown for glucose, compound 5, compound 6, and compound 7. Results are the average of at least four trials performed in duplicate and error bars represent single standard deviations.
To test the generality of the observed valency-dependent differences in chemotactic activities and to investigate the role of membrane permeability in responses to our ligands, chemotactic experiments in B. subtilis were conducted. B. subtilis is a gram-positive bacterium that, like gram-negative E. coli, is able to respond to saccharide chemoattractants. In the case of B. subtilis, the multivalent ligands can directly interact with saccharide-sensing receptors, without having to first traverse the outer membrane. Glucose is a chemoattractant for B. subtilis, but galactose is not. Glucose-carrying ligands (compounds 5-7, Scheme 1) were effective chemoattractants for B. subtilis as shown in capillary accumulation assays. […]
E. coli from an overnight culture were grown in LB to OD550 0.4-0.6, washed twice with E. coli chemotaxis buffer, and then partially permeabilized. […] Data was analyzed using the Q and Students tests.

O=C(NCCOC1OC(CO)C(O)C(O)C1O)C1C[C@@H]2C=CC1C2 (stereo partly shown) [Compound 5]
number of bacteria accumulated compared with unmodified glucose: comparable to the number accumulated when unmodified glucose was used as the attractant

Reference: patent US20040248801A1, “Methods and reagents for regulation of cellular responses in biological systems” (priority 2000, published 2004)
